The list shows a part of the results.
Each compound was assayed on T1, CTL2-GFP (C. trachomatis L2/434/Bu, GFP-expressing). Details: bulk GFP, single well; 28.5 h, 10 µM; inhibitor.
T1 construct: L2/434/Bu, GFP-expressing
Design: species or system HeLa; Intracellular C. trachomatis growth in HeLa cells, bulk GFP fluorescence relative to DMSO

SMILES | % of control remaining [%]
Cc1cc2[nH]cc(C(=O)N3CCCC3c3ccco3)c(=O)n2n1 (stereo not drawn) [CBK307390] | 109.092
CCCS(=O)(=O)Nc1cccc(-c2nnn[nH]2)c1 [CBK155417] | 84.0423
CC(=O)N1CCC(c2nc(C3CCCC3)no2)C1 (stereo not drawn) [CBK285452] | 145.926
Cc1ccc(S(=O)(=O)N(C)C)cc1NC(=O)C12CCC(C)(C(=O)C1)C2(C)C (stereo not drawn) [CBK266551] | 129.554
COc1cc(C=O)ccc1OCC(=O)Nc1ccc(C)c(Cl)c1 [CBK266190] | 130.502
Cc1cccc(C(=O)N2CCN(S(=O)(=O)c3sc(C(=O)O)c(C)c3C(=O)O)CC2)c1 [CBK297124] | 123.648
COc1cccc(C(=O)N2CCC(NC(=O)c3csc(-c4ccccc4)n3)CC2)c1 [CBK155030] | 138.052
Cc1nc(-c2ccccc2)sc1CNC(=O)C1CC1C (stereo not drawn) [CBK092369] | 125.673
Cc1cc(C)n(C(CC(=O)c2ccccc2)C(=O)O)n1 (stereo not drawn) [CBK287209] | 129.83
COc1ccc(-c2nc3ccc(C)cc3c(C(=O)NCCc3ccc(S(N)(=O)=O)cc3)c2C)cc1 [CBK267753] | 84.7352
Cc1nc2c(OCc3ccc(F)c(F)c3)cccn2c1N(C)CC1CC1 [CBK147276] | 107.21
O=C(c1sccc1NS(=O)(=O)c1ccc(Oc2ccccc2)cc1)N1CCOCC1 [CBK050423] | 110.086
CC(C)NC(=O)[C@@H]1CN(C)C[C@]12CCc1ccccc1C2=O [CBK284764] | 132.847
c1ccc(-c2nn3c(CN4CCOCC4)nnc3c3ccccc23)cc1 [CBK269779] | 155.398
CN1CC=C(/C=C/c2ccc(Sc3ncccn3)o2)CC1 [CBK283797] | 116.704
CCN(Cc1ccncc1)C(=O)NCCCSC [CBK155125] | 118.541
O=C(NCCCc1ccccn1)c1cnn(-c2ccc(F)cc2)c1 [CBK283287] | 109.876
Cc1nc(C2(O)CCCN(Cc3cccc(F)c3)CC2)sc1CCOc1ccccc1 (stereo not drawn) [CBK286024] | 86.1398
CCN(CC)c1c(C)nc2ccc(C(=O)NCCc3ccccn3)cn12 [CBK145951] | 90.2637
C=CCn1c(Cc2csc(NC(=O)c3ccc([N+](=O)[O-])cc3)n2)n[nH]c1=S [CBK295290] | 152.2
O=C(O)CCSc1nc2ccccc2nc1C(F)(F)F [CBK107866] | 80.2644
Cc1cc(C)cc(OCc2nnc(SCC(=O)Nc3c(F)cc(F)cc3Br)n2C)c1 [CBK268604] | 132.468
Oc1nsnc1-c1ccccc1 [CBK026014] | 157.475
CCOC(=O)N(C)c1c(CC)nc2ccc(C(=O)N(C)CCCN(C)C)cn12 [CBK146478] | 133.361
OC(COCc1ccccc1)CN1CCN(Cc2ccccc2)CC1 (stereo not drawn) [CBK278297C] | 100
Cc1ccc2[nH]c3c(c2c1)CCNC31CCN(C(=O)[C@@H]2CCCC[C@@H]2C(=O)O)CC1 [CBK047222] | 114.478

Three entries picked at random from the list so far, as already listed:
SMILES | % of control remaining [%]
COc1cc(C=O)ccc1OCC(=O)Nc1ccc(C)c(Cl)c1 [CBK266190] | 130.502
CCN(CC)c1c(C)nc2ccc(C(=O)NCCc3ccccn3)cn12 [CBK145951] | 90.2637
OC(COCc1ccccc1)CN1CCN(Cc2ccccc2)CC1 (stereo not drawn) [CBK278297C] | 100

Continued.

SMILES | % of control remaining [%]
O=C(COc1ccccc1)c1cn(CC(=O)N2CCc3ccccc32)c2ccccc12 [CBK267659] | 133.205
[O-][S+](c1ccc(Cl)c(Cl)c1)c1cc2c(N3CCCNCC3)nccc2s1 (stereo not drawn) [CBK038304C] | 103.604
COc1ccc(C(=O)N2CCC3(CCN(C(=O)CC4CCCCC4)C3)C2)cc1OC (stereo not drawn) [CBK131770] | 104.797
O=C1COc2ccccc2CCCCC2(CCCNC2)CN1 (stereo not drawn) [CBK292166] | 149.967
Cc1cc(Cl)ccc1OCCCC(=O)N1CCc2ccccc21 [CBK059016] | 114.536
CCOC(=O)c1c(C)n(-c2ccc(C)cc2)c2ccc(Oc3ncccc3C#N)cc12 [CBK261310] | 121.323
Cc1cc(C)n2ncc(C(=O)N3CCCC3c3ccc(F)cc3)c2n1 (stereo not drawn) [CBK305885] | 99.7012
CC(=O)Nc1ccc(C(=O)CSc2nnc(-c3ccncc3)o2)cc1 [CBK266349] | 136.013
CCCc1ccc(S(=O)(=O)Nc2ccc(C(=O)OC)cc2)cc1 [CBK028682] | 119.926
O=S(=O)(Nc1cccc(-c2cnco2)c1)c1cc(C(F)(F)F)cc(C(F)(F)F)c1 [CBK067127] | 88.2028
Cc1cnccc1-c1c[nH]nc1-c1cccc(CNS(=O)(=O)c2ccc(F)c(F)c2)c1 [CBK285627] | 111.111
Cc1c(C(=O)Nc2ccc(S(=O)(=O)N3CCCCCC3)cc2)oc2ccc(Cl)cc12 [CBK267664] | 115.132
CCCCc1ccc(-c2cc3ncccc3nc2N)cc1 [CBK081198] | 126.187
Cc1nn(CC(=O)NC2CCCC2)c(=O)c2cc3sccc3n12 [CBK284023] | 88.2167
O=C(O)CCc1c(-c2ccccc2)cc2ccccn12 [CBK266308] | 73.1651
C=C(C)CN1CCN(Cc2cnn(C3CCCCC3)c2)CC1 [CBK282828] | 114.77
CC(NS(=O)(=O)c1cc(Cl)ccc1Cl)C(=O)Nc1ccccc1 (stereo not drawn) [CBK267871] | 100.867
S=C(NCCc1ccc(Cl)cc1)NCc1ccco1 [CBK266812] | 167.674
Cc1ccc2cc(CN(Cc3ccco3)C(=O)c3cccs3)c(O)nc2c1 [CBK269274] | 109.831
O=C(c1ccccc1NS(=O)(=O)c1ccc(Br)cc1)N1CCOCC1 [CBK043340] | 117.606
CC(C)(C)C1CCc2onc(C(=O)NCCn3ccnc3)c2C1 (stereo not drawn) [CBK281581] | 119.641
O=C(Nc1cccc(-c2nc3ccccc3s2)c1)c1ccc(S(=O)(=O)N2CCCC2)cc1 [CBK261787] | 132.89
Cc1nn(C)cc1-c1cncn1CCCC(C)(C)CO [CBK281492] | 128.922
Cc1csc(CC(C)n2cc(Cl)cn2)n1 (stereo not drawn) [CBK304797] | 98.4251
O=C(Nc1cccc(C(F)(F)F)c1)c1nc[nH]n1 [CBK027341] | 108.523
